Measurements published in USRE49477 (THOMAS JEFFERSON UNIVERSITY, dated 2023).
Results are given in words; binding and its absence hold for the method and conditions named. Some entries that bind do so weakly or less than the wild type. Where a sequence is shown, tags or fusion partners need not be part of it.

Chains of the proteins cited; added tags and fusions are not shown. Lines headed by an entry give the natural chain unless they say otherwise; changes in a name come on top.
UniProt P02452: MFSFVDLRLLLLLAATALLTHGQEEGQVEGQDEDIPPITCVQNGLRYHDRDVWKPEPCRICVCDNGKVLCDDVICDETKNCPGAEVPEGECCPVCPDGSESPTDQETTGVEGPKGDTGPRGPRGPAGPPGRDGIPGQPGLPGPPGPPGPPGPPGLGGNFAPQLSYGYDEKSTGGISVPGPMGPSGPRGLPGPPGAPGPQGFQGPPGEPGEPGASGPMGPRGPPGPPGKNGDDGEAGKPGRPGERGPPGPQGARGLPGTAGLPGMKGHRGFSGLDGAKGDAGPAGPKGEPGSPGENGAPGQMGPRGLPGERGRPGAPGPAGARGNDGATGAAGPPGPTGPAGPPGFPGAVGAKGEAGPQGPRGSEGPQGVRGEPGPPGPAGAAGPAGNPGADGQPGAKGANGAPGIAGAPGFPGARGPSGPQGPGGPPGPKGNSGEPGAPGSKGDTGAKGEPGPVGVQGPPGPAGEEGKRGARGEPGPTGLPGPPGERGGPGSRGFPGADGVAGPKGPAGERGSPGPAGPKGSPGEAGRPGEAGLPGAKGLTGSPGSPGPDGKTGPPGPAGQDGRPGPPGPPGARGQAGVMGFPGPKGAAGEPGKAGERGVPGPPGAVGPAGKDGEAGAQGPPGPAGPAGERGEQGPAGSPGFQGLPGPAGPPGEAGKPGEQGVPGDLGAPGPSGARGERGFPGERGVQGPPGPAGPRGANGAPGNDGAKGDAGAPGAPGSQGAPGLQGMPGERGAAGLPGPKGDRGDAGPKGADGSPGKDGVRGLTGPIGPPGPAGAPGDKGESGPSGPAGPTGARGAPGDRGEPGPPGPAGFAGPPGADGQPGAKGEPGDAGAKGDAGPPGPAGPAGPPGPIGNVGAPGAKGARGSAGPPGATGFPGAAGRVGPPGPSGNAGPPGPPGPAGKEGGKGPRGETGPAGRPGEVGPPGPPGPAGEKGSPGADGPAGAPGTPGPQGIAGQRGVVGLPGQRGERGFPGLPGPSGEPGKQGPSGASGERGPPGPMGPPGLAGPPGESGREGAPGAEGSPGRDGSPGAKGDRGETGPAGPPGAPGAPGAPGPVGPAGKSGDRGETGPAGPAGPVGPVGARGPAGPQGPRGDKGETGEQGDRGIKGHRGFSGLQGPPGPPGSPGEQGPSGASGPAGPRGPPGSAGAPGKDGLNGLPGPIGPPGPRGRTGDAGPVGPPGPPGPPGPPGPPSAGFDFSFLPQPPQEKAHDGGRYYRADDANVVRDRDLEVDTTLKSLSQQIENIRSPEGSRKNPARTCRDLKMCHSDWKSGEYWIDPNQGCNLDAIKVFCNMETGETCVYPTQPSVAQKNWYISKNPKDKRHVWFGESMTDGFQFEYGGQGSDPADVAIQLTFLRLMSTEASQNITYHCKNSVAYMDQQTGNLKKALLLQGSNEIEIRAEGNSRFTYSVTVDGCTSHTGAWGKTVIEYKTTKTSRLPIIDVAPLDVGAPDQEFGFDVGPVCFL
UniProt P08123: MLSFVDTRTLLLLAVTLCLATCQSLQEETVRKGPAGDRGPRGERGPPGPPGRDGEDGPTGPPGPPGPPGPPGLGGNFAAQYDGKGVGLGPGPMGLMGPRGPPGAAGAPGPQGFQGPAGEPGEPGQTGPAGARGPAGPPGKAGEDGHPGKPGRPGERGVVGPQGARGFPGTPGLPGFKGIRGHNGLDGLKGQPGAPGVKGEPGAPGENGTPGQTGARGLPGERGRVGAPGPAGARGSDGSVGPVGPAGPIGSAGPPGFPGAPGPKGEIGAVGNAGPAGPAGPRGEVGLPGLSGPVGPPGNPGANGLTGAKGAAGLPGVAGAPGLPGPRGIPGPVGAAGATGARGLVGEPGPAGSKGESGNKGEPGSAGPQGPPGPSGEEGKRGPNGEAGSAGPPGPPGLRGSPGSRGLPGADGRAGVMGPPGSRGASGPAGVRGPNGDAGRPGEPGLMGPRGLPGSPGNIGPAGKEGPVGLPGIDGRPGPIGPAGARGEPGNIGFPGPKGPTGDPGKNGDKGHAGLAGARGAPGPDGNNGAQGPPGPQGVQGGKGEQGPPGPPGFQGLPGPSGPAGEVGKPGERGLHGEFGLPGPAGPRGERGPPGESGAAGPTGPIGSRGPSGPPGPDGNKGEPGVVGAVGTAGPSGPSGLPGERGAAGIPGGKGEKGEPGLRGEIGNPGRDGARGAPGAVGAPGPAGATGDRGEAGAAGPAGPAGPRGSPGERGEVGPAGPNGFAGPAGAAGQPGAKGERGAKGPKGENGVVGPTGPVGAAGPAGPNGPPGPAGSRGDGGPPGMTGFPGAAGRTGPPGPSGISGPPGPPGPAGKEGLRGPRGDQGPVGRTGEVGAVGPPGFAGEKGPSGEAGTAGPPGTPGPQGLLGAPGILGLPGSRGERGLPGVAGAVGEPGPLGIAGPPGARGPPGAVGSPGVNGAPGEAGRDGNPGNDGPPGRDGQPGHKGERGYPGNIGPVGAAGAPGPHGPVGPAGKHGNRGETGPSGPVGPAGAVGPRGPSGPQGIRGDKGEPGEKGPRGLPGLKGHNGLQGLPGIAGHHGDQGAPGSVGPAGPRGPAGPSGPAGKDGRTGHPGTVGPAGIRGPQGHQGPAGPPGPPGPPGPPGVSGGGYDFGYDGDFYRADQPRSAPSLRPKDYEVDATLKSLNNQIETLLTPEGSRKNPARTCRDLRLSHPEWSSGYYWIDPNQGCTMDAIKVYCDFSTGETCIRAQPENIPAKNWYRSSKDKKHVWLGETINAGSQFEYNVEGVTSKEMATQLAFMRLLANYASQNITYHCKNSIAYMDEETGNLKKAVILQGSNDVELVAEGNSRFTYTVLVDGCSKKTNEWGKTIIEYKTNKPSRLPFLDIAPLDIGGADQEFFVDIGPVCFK

Each binder was assayed against purified human procollagen I (human) (UniProt P02452+P08123) (assay: SensiQ Pioneer biosensor, procollagen I immobilized).

| binding | Binder |
| --- | --- |
| binds | original anti-α2Ct mouse IgA antibody (antibody, V domains shown) VH: QIQLVQSGPELKKPGETVKISCKASGYTFTDYPLHWVKQAPGKGLQWMAWINTETGEPTYADDFTGRFAFSLETSASTAYLQINNLKNEDTATYFCVRGYYYYWGQGTTLSVSS VL: DIVMSQSPSSLAVSAGEKVTMSCKSSQSLLNSRTRKNNLAWYQQKPGQSPKLLIYWASTRESGVPDRFTGSGSGTDFTLTISSVQAEDLAVYYCKQSYNLWTFGGGTKLEIKR |
| binds | mouse-human chimeric IgG consisting of the mVH-hγ and mVL-hκ chains (antibody, V domains shown, The constant regions are human IgG1 γ (pFUSE-CHIg-hG1) and human κ (pFUSE2-CLIg-hk); The antibody was expressed in CHO cells and purified on Protein-L; also called chimeric antibody; CHO-IgG) VH: QIQLVQSGPELKKPGETVKISCKASGYTFTDYPLHWVKQAPGKGLQWMAWINTETGEPTYADDFTGRFAFSLETSASTAYLQINNLKNEDTATYFCVRGYYYYWGQGTTLSVSS VL: DIVMSQSPSSLAVSAGEKVTMSCKSSQSLLNSRTRKNNLAWYQQKPGQSPKLLIYWASTRESGVPDRFTGSGSGTDFTLTISSVQAEDLAVYYCKQSYNLWTFGGGTKLEIKR |
| binds | bacterial-derived scFv variant (anti-α2Ct single chain antibody, FLAG-tagged) (scFv) scFv: MDIVMSQSPSSLAVSAGEKVTMSCKSSQSLLNSRTRKNNLAWYQQKPGQSPKLLIYWASTRESGVPDRFTGSGSGTDFTLTISSVQAEDLAVYYCKQSYNLWTFGGGTKLEIKVDGGGGSGGGGSGGGGSLEQIQLVQSGPELKKPGETVKISCKASGYTFTDYPLHWVKQAPGKGLQWMAWINTETGEPTYADDFTGRFAFSLETSASTAYLQINNLKNEDTATYFCVRGYYYYWGQGTTLSVSSDYKDDDDK |
